Experimental data as given in patent publication US20230128075A1.
These are yes or no findings as the source states them, for the method shown. Some binding calls cover weakened binding; strength is not graded here.

Sequences of proteins named here, by UniProt entry; tags and fusion partners are left off.
UniProt P17879: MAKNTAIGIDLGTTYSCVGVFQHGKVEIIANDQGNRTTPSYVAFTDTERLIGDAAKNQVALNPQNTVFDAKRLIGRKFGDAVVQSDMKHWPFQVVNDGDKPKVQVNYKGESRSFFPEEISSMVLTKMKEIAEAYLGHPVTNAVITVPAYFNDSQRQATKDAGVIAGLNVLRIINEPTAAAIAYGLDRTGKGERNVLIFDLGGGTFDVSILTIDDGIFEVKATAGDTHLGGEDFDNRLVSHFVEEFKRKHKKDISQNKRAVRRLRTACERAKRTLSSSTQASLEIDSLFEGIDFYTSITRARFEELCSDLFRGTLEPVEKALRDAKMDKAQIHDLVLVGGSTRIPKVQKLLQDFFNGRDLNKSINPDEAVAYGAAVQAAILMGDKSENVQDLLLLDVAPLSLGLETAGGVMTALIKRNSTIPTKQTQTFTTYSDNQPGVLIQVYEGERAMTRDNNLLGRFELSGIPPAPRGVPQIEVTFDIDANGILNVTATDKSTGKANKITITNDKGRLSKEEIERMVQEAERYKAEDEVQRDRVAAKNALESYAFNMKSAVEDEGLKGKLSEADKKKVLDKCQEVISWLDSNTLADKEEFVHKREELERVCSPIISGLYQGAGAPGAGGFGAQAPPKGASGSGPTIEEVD

Molecular target: murine HSP70 (murine) (UniProt P17879)
Experiment: Octet bio-layer interferometry, association to 300 s then dissociation; concentrations not given

- binding: binds
B1: 77A antibody (clone 77A, murine anti-HSP70 mAb) (antibody, V domains shown)
VH: QIQLVQSGPELKKPGETVKISCKASGYTFTNYGMNWVKQAPGKGLKWMGWINTYTGEPTYADDFKGRFAFSLETSATTAYLQINNLKNEDTATYFCARYDHAMDYWGQGTSVTVSS
VL: DIVMSQSPSSLAVSAGEKVTMSCKSSQSLLNSGTRKNYLAWYQQKPGQSPKLLIYWTSTRESGVPDRFTGSGSGTDFTLTINSVQAEDLAVYYCKQSYTLYTFGGGTKLEIK
